PubChem BioAssay AID1159578 | Peter MacCallum Cancer Centre – 2015
The deposit covers about 18,000 reagents; shown is a random part of them. About 1,030 of them (5.7%) count as active. 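Inactive calls also include pools with fewer than 3300 nuclei, whose migration was not assessed.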 Raw values vary from plate to plate and are shown uncorrected. A number with no mark means an inactive call.

Test: 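Genome-wide hunt for genes controlling movement of lymphatic endothelial cells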 (primary screen)
Cell system: human lymphatic endothelial cells
Knock-down reagent: siRNA pool against human genes, 40 nM
Duration: 48 h after transfection
Read-out: 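High-content imaging of dye-stained cells in a scratch assay measures filled wound area and nuclei per well; duplicate means given as ratio to mock and robust z-score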
Reading the numbers: migration robust z-score: higher = faster migration into the scratch; migration relative to mock: higher = more scratch area covered than mock; nuclei per well: higher = more cells in the well
Rule for the call: 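Migration changed when robust z exceeds 2 or falls below -2 and mean nuclei number is at least 3300; otherwise not called changed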
Meaning of the calls: active = migration changed; inactive = no migration change, or too few cells

| gene knocked down | migration robust z-score | migration class with cell-count check | migration relative to mock | nuclei per well, duplicate mean |
| --- | --- | --- | --- | --- |
| SLC39A12 | -1.19 | migration z between -2 and 2; enough cells | 0.57 | 3687 |
| FABP9 (fatty acid binding protein 9) | -1.06 | migration z between -2 and 2; enough cells | 0.62 | 3724 |
| MMS19 (MMS19 cytosolic iron-sulfur assembly component) | 0.06 | migration z between -2 and 2; enough cells | 0.9 | 7072 |
| POLR1D (RNA polymerase I and III subunit D) | -0.52 | migration z between -2 and 2; enough cells | 0.71 | 4858 |
| TCN1 (transcobalamin 1) | -0.55 | migration z between -2 and 2; enough cells | 0.74 | 4055 |
| STRC (stereocilin) | -2.38 (active) | migration z below -2; enough cells | 0.28 | 5663 |
| TBL3 (transducin beta like 3) | 0.7 | migration z between -2 and 2; enough cells | 1.07 | 6725 |
| PSTK (phosphoseryl-tRNA kinase) | 0.46 | migration z between -2 and 2; enough cells | 0.9 | 4998 |
| C8A (complement C8 alpha chain) | -0.59 | migration z between -2 and 2; enough cells | 0.72 | 4216 |
| PFKFB3 (6-phosphofructo-2-kinase/fructose-2,6-biphosphatase 3) | 0.06 | migration z between -2 and 2; enough cells | 0.82 | 5388 |
| CYP2C19 (cytochrome P450 family 2 subfamily C member 19) | -0.07 | migration z between -2 and 2; enough cells | 0.86 | 7411 |
| AIP (AHR interacting HSP90 co-chaperone) | -1.38 | migration z between -2 and 2; enough cells | 0.54 | 4616 |
| CD164 (CD164 molecule) | -0.84 | migration z between -2 and 2; enough cells | 0.67 | 4680 |
| TSNARE1 (t-SNARE domain containing 1) | -0.06 | migration z between -2 and 2; enough cells | 0.88 | 6402 |
| PECAM1 (platelet and endothelial cell adhesion molecule 1) | 0.77 | migration z between -2 and 2; enough cells | 1.08 | 6177 |
| PALLD (palladin, cytoskeletal associated protein) | 1.66 | migration z between -2 and 2; enough cells | 1.31 | 6823 |
| ELANE (elastase, neutrophil expressed) | 0.83 | migration z between -2 and 2; enough cells | 0.96 | 5360 |
| PABIR1 | 0.5 | migration z between -2 and 2; enough cells | 1.02 | 7380 |
| CLEC4E (C-type lectin domain family 4 member E) | -1.52 | migration z between -2 and 2; enough cells | 0.49 | 6626 |
| TMEM45A (transmembrane protein 45A) | 1.21 | migration z between -2 and 2; enough cells | 1.2 | 5870 |
| RYK (receptor like tyrosine kinase) | 0.24 | migration z between -2 and 2; enough cells | 0.85 | 5812 |
| CYP19A1 (cytochrome P450 family 19 subfamily A member 1) | 1.25 | migration z between -2 and 2; enough cells | 1.04 | 5889 |
| OR1I1 (olfactory receptor family 1 subfamily I member 1) | -3.28 | under 3300 nuclei; migration not judged | 0.04 | 2964 |
| ACCSL | 1.31 | migration z between -2 and 2; enough cells | 1.23 | 6687 |
| MPZL2 (myelin protein zero like 2) | 0.66 | migration z between -2 and 2; enough cells | 1.06 | 5615 |
| DHRS12 (dehydrogenase/reductase 12) | -0.31 | migration z between -2 and 2; enough cells | 0.8 | 6028 |
| KCTD16 (potassium channel tetramerization domain containing 16) | 0 | migration z between -2 and 2; enough cells | 0.88 | 5772 |
| ALOX15 (arachidonate 15-lipoxygenase) | -0.34 | migration z between -2 and 2; enough cells | 0.74 | 5828 |
| OR10Q1 (olfactory receptor family 10 subfamily Q member 1) | 0.84 | migration z between -2 and 2; enough cells | 1.1 | 5855 |
| NGRN (neugrin, neurite outgrowth associated) | 0.54 | migration z between -2 and 2; enough cells | 1.02 | 5066 |
| SCAI (suppressor of cancer cell invasion) | 0.36 | migration z between -2 and 2; enough cells | 0.98 | 5898 |
| SSTR1 (somatostatin receptor 1) | -0.02 | migration z between -2 and 2; enough cells | 0.8 | 5332 |
| MLXIPL (MLX interacting protein like) | 0 | migration z between -2 and 2; enough cells | 0.8 | 5776 |
| PAXBP1 (PAX3 and PAX7 binding protein 1) | -2.34 (active) | migration z below -2; enough cells | 0.28 | 5606 |
| MEP1B (meprin A subunit beta) | -0.29 | migration z between -2 and 2; enough cells | 0.75 | 5550 |
| MYL9 (myosin light chain 9) | -0.24 | migration z between -2 and 2; enough cells | 0.82 | 5120 |
| VIRMA (vir like m6A methyltransferase associated) | -1.43 | migration z between -2 and 2; enough cells | 0.52 | 6269 |
| CRIP1 (cysteine rich protein 1) | -0.01 | migration z between -2 and 2; enough cells | 0.88 | 5205 |
| RAB4B (RAB4B, member RAS oncogene family) | -0.11 | migration z between -2 and 2; enough cells | 0.78 | 3477 |

Laid out differently: results already given.
gene knocked down	migration robust z-score	migration class with cell-count check	migration relative to mock	nuclei per well, duplicate mean
SSTR1 (somatostatin receptor 1)	-0.02	migration z between -2 and 2; enough cells	0.8	5332
MLXIPL (MLX interacting protein like)	0	migration z between -2 and 2; enough cells	0.8	5776
